{
  "sequences": {"note": "Protein sequences, listed by entry. Tags and fused reporters are not part of them.", "UniProt P08659, whole entry, looked up": "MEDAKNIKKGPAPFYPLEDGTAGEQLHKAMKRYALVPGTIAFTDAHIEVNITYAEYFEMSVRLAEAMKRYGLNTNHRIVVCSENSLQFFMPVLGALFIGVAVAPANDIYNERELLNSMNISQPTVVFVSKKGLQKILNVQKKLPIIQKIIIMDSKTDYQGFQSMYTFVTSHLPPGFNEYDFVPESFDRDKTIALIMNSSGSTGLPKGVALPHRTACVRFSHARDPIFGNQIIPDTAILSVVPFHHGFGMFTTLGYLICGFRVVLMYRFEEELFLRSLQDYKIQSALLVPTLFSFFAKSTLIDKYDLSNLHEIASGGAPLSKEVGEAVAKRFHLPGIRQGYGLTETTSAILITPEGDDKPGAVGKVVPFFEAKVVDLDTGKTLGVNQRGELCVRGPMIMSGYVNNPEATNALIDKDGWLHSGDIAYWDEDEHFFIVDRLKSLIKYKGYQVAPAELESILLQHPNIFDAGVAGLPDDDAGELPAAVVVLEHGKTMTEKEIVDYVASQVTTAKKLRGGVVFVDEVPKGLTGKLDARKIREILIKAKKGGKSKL"},
  "source": "PubChem BioAssay AID1963320",
  "about": "(National Center for Advancing Translational Sciences (NCATS), 2024)",
  "note": "In all, about 1,300 compounds went through this assay and about 560 (43%) were called active. Not shown: some 39% with an inconclusive outcome. Calls follow the shape of the dose curve; as a rule, active = well fitted inhibition curve with a large enough effect; inconclusive = small, poorly fitted or top-dose-only effect; inactive = flat fitted curve, though single readings scatter. The set was probably picked from earlier hits. Only a part is listed here, and it is no random draw. % is scaled to controls: 0 for no effect and ±100 for the full control effect. Also: nearly all actives have a fitted effect of over 70% in size.",
  "data": [
    {"biological_target": "Luciferin 4-monooxygenase (Photinus pyralis) (UniProt P08659)", "test": "Firefly luciferase (FLuc-C-HiBiT) enzymatic inhibition screen - Functional assay", "settings": "purified FLuc-C-HiBiT enzyme, luciferin luminescence; at 49.3 µM (top of the series)", "text": "PI: James Inglese Ph.D. National Center for Advancing Translational Sciences (NCATS), National Institute of Health (NIH), Maryland Discovery and optimization of novel protein-binding ligands underlies many of the methods and applications of biology, drug discovery, clinical diagnostics, and environmental toxicology. Assays for detecting the interaction of, for example, a molecule with a macromolecular target also referred to here as the target of interest (TOI) is dependent on a compatible output technology. Depending on the nature and knowledge surrounding the TOI, whether a receptor, enzyme, regulatory subunit or scaffold, or a sequence-defined nucleic acid folded into a complex tertiary structure, assay strategies can vary widely. Here we exploit ligand-biased changes in the structural dynamics of the target protein to control reporter alpha complementation allowing a non-competitive, non-functional, non-separation measure of ligand-target interaction. […]\n1. […] Functional assay measured using CCD-based camera (ViewLux) with settings as follows: Exposure, 10 sec; Gain, High; Speed, Slow; Binning, 2X. […]", "values": [
      {"smiles": "CN1CCNc2cc(-c3ccc([S+](C)(=O)[O-])cc3)ncc2C1", "activity change, negative = inhibition": "inactive: -8.69%"}
    ]}
  ]
}
